Reference: PubChem BioAssay AID504444 (National Center for Advancing Translational Sciences (NCATS), 2011)
About 7,500 (2.1%) of roughly 360,000 compounds were called active. The inconclusive results got no clear call from the source; some entries with a clear call stand among them for comparison. Calls follow the shape of the dose curve; as a rule, active = well fitted inhibition curve with a large enough effect; inconclusive = small, poorly fitted or top-dose-only effect, or effect the other way; inactive = flat fitted curve, though single readings scatter. Potencies of inconclusive entries are doubtful fits and often do not repeat.

experiment: Nrf2 qHTS screen for inhibitors; details: A549 ARE-Fluc reporter, luciferase luminescence, 18-24 h; series mostly up to 46 µM; also: nearly all actives have a fitted effect of over 60% in size
In short: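 Nrf2 function is reported as luminescence of an ARE-controlled luciferase in A549 cells. Compounds were tested at several concentrations, and a CellTiter-Fluor read on the same wells flagged cytotoxicity.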
Potency is read from the fitted curve at half-maximal effect.

**Q.** Which Potency does the source give for `CNc1cc(CSC)nc(SCc2ccc(Cl)c(Cl)c2)n1` here?
**A.** inconclusive: 29.1 µM [falling, single point]

**Q.** For `CC1CCN(c2nc3ccc(C(=O)NCc4ccc(Cl)cc4)cc3s2)CC1`, which Potency is on record?
**A.** inconclusive: 0.58 µM [activator, partial curve, poor fit]

**Q.** Which Potency does the source give for `COc1ccc(C2CC(=O)N(CC(=O)Nc3ccc(C(F)(F)F)cc3)c3ccccc3S2)cc1` (stereo unspecified) here?
**A.** inconclusive: 8.2 µM [activator, partial curve]

**Q.** With `Cc1ccc(OCCCCCN2CCOCC2)c(Cl)c1` as the molecule, how does the Potency read?
**A.** inconclusive: 29.1 µM [activator, single point]

**Q.** With `CCCC(=O)Nc1ccccc1-c1nnn(CC(=O)Nc2ccc(OCC)cc2)n1` as the molecule, how does the Potency read?
**A.** inconclusive: 29.1 µM [falling, single point]

**Q.** For `CCC1CCCCN1C(=O)Cn1c(=O)n(CC2CCC(C(=O)NC)CC2)c(=O)c2sccc21` (stereo unspecified), which Potency is on record?
**A.** inconclusive: 3.66 µM [activator, partial curve, poor fit]

**Q.** With `COc1ccc(N2CCN(Cc3nc4c(c(=O)[nH]c(=O)n4C)n3Cc3ccccc3)CC2)cc1` as the molecule, how does the Potency read?
**A.** inactive

**Q.** Which Potency does the source give for `COC(=O)c1cc(CSc2nnc(-c3ccccc3)c(-c3ccccc3)n2)oc1C` here?
**A.** active: 20.6 µM

**Q.** For `c1coc(-c2nnc(NC3=NCCC3)o2)c1`, which Potency is on record?
**A.** inconclusive: 3.66 µM [activator, partial curve, poor fit]

**Q.** With `CCOC(=O)C(=Cc1c[nH]c2ccc(S(=O)(=O)N(C)C)cc12)C(=O)OCC` as the molecule, how does the Potency read?
**A.** inconclusive: 16.4 µM [falling, single point]

**Q.** For `O=C1CCCC(O)=C1N=Nc1c(Cl)cc(Cl)cc1Cl`, which Potency is on record?
**A.** inactive

**Q.** Which Potency does the source give for `Cc1ccc(-n2ncc(Cl)c2C(=O)NCc2ccccc2)cc1` here?
**A.** inconclusive: 25.9 µM [activator, single point]

**Q.** For `COc1ccc(C(=O)C[n+]2cn(C(F)F)c3ccccc32)c(F)c1`, which Potency is on record?
**A.** inconclusive: 29.1 µM [activator, single point]

**Q.** With `Cn1c(N2CCN(S(=O)(=O)c3ccc(Cl)cc3)CC2)nc2ccccc21` as the molecule, how does the Potency read?
**A.** inconclusive: 4.11 µM [falling, partial curve, poor fit]

**Q.** With `Cc1ccc(Oc2coc3cc(O)ccc3c2=O)cc1` as the molecule, how does the Potency read?
**A.** active: 9.2 µM

**Q.** With `CCOC(=O)C[C@H]1c2ccc(C(F)(F)F)cc2S(=O)(=O)N1Cc1ccccc1` as the molecule, how does the Potency read?
**A.** inactive

**Q.** With `CN(c1ccccc1)c1ccc(/C=N/N2CCOCC2)cc1` as the molecule, how does the Potency read?
**A.** inconclusive: 1.64 µM [activator, full curve]

**Q.** With `Cc1ccc(C)c(CSc2nc3ccncc3n2Cc2nc(-c3ccccc3Cl)oc2C)c1` as the molecule, how does the Potency read?
**A.** inconclusive: 29.1 µM [falling, single point]

**Q.** With `Cc1ccc2c(c1)NC(=O)c1cc([N+](=O)[O-])ccc1O2` as the molecule, how does the Potency read?
**A.** inconclusive: 18.4 µM [activator, partial curve, poor fit]

**Q.** For `N#C/C(=N\Nc1cccc([N+](=O)[O-])c1)C(=O)c1ccc(Br)cc1`, which Potency is on record?
**A.** active: 9.2 µM

**Q.** Which Potency does the source give for `O=[N+]([O-])c1ccc2c(c1)C(=Nc1ccccc1)c1ccccc1-2` here?
**A.** inconclusive: 32.6 µM [activator, partial curve, poor fit]

**Q.** With `O=C(NCC1CCCO1)C1CCCN1C(=O)Nc1ccccc1[N+](=O)[O-]` (stereo unspecified) as the molecule, how does the Potency read?
**A.** inconclusive: 16.4 µM [falling, single point]

**Q.** With `Cc1noc(C)c1COc1ccc(C(=O)N2CCN(c3cccc(Cl)c3)CC2)cc1` as the molecule, how does the Potency read?
**A.** active: 23.1 µM

**Q.** For `CN(CC(=O)Nc1cccc(C#N)c1)Cc1ccc(Cl)cc1`, which Potency is on record?
**A.** inconclusive: 23.1 µM [falling, single point]

**Q.** For `CCOC(=O)Nc1ccc2c(c1)OCO2`, which Potency is on record?
**A.** inconclusive: 25.9 µM [activator, single point]

**Q.** Which Potency does the source give for `COc1ccc(C2C=C3CNS(=O)(=O)C3CC2OC(=O)c2ccc(Cl)cc2)cc1` (stereo unspecified) here?
**A.** inconclusive: 16.4 µM [falling, partial curve, poor fit]

**Q.** Which Potency does the source give for `CN(C(=O)CSc1nnc(Cc2ccccc2F)n1N)C1CCCCC1` here?
**A.** inconclusive: 2.06 µM [activator, full curve, poor fit]

**Q.** For `O=C(CCCc1ccccc1)c1ccccc1`, which Potency is on record?
**A.** inconclusive: 9.2 µM [activator, partial curve]

**Q.** With `CCCn1nc(NC(=O)C2CCCO2)c2cc3ccc(C)cc3nc21` (stereo unspecified) as the molecule, how does the Potency read?
**A.** inconclusive: 29.1 µM [activator, single point]

**Q.** Which Potency does the source give for `CCC(C)(C)c1ccc(OCCCC[n+]2cccc(C)c2C)c(C(C)(C)CC)c1` here?
**A.** active: 5.8 µM

**Q.** For `O=C(NCCc1ccccc1)c1ccccc1NC(=O)C1CCCO1` (stereo unspecified), which Potency is on record?
**A.** inconclusive: 0.326 µM [activator, full curve, poor fit]

**Q.** Which Potency does the source give for `COc1ccc(CN(C)C(=O)Cn2cc(C)c(=O)[nH]c2=O)cc1OC` here?
**A.** inactive

**Q.** With `O=C(NCc1ccc2c(c1)OCO2)c1nn(-c2ccccc2)c(=O)c2ccccc12` as the molecule, how does the Potency read?
**A.** inconclusive: 7.31 µM [falling, partial curve, poor fit]

**Q.** With `O=C(N/N=C/C=C/c1ccccc1)c1cc(C2CC2)[nH]n1` as the molecule, how does the Potency read?
**A.** inconclusive: 1.84 µM [falling, partial curve, poor fit]

**Q.** With `COc1ccc(NC(=O)c2cc3c(=O)n(Cc4ccco4)ccc3nc2C)c(OC)c1` as the molecule, how does the Potency read?
**A.** inconclusive: 29.1 µM [falling, single point]

**Q.** For `O=C(CCCn1c(=O)c2ccccc2n(CC(=O)Nc2ccc(F)cc2F)c1=O)NCc1ccccc1Cl`, which Potency is on record?
**A.** inconclusive: 2.06 µM [falling, full curve, poor fit]

**Q.** With `CC(C)(C)OC(=O)C[C@@H]1C/C=C\C[C@@H](CC(=O)N[C@H](CO)Cc2ccccc2)C(=O)NC[C@@H](c2ccccc2)OC1=O` as the molecule, how does the Potency read?
**A.** inactive

**Q.** With `Cc1ccc(C(=O)Nc2nc(-c3ccccc3)c(-c3ccccc3)o2)cc1` as the molecule, how does the Potency read?
**A.** inconclusive: 29.1 µM [falling, single point]

**Q.** Which Potency does the source give for `CCCCNC(=S)N1CCC(Cc2ccccc2)CC1` here?
**A.** inconclusive: 25.9 µM [falling, single point]

**Q.** Which Potency does the source give for `CCCCOC(=O)c1ccc(NC(=O)/C(C#N)=C/c2ccc(-c3ccccc3)o2)cc1` here?
**A.** inconclusive: 32.6 µM [falling, single point]

**Q.** Which Potency does the source give for `CSc1nc(N)nc2c1ncn2CC(=O)N1CCN(Cc2c(C)cc(C)cc2C)CC1` here?
**A.** inconclusive: 2.06 µM [falling, full curve]
